## Cleaved PARP in drug-treated melanoma cells

Every entry is a combination with ruxolitinib at 5000 nM: N#CC[C@H](C1CCCC1)n1cc(-c2ncnc3[nH]ccc23)cn1

Drugs:
AS-252424, 5000 nM: O=C1NC(=O)/C(=C/c2ccc(-c3ccc(F)cc3O)o2)S1
LFM-A13, 10000 nM: C/C(O)=C(\C#N)C(=O)Nc1cc(Br)ccc1Br
tozasertib, 30 nM: Cc1cc(Nc2cc(N3CCN(C)CC3)nc(Sc3ccc(NC(=O)C4CC4)cc3)n2)n[nH]1
indole-3-carbinol, 4000 nM: OCc1c[nH]c2ccccc12
SNS-032, 50 nM: CC(C)(C)c1cnc(CSc2cnc(NC(=O)C3CCNCC3)s2)o1
enzastaurin, 4000 nM: Cn1cc(C2=C(c3cn(C4CCN(Cc5ccccn5)CC4)c4ccccc34)C(=O)NC2=O)c2ccccc21
docetaxel, 0.5 nM: CC(=O)O[C@@]12CO[C@@H]1C[C@H](O)[C@@]1(C)C(=O)[C@H](O)C3=C(C)[C@@H](OC(=O)[C@H](O)[C@@H](NC(=O)OC(C)(C)C)c4ccccc4)C[C@@](O)([C@@H](OC(=O)c4ccccc4)[C@H]21)C3(C)C
decitabine, 500 nM: Nc1ncn([C@H]2C[C@H](O)[C@@H](CO)O2)c(=O)n1
vatalanib, 10000 nM: Clc1ccc(Nc2nnc(Cc3ccncc3)c3ccccc23)cc1
embelin, 6000 nM: CCCCCCCCCCCC1=C(O)C(=O)C=C(O)C1=O
IMD-0354, 80 nM: O=C(Nc1cc(C(F)(F)F)cc(C(F)(F)F)c1)c1cc(Cl)ccc1O
VX-702, 2000 nM: NC(=O)c1ccc(N(C(N)=O)c2c(F)cccc2F)nc1-c1ccc(F)cc1F
bexarotene, 10000 nM: C=C(c1ccc(C(=O)O)cc1)c1cc2c(cc1C)C(C)(C)CCC2(C)C
FH535, 5000 nM: Cc1cc([N+](=O)[O-])ccc1NS(=O)(=O)c1cc(Cl)ccc1Cl
BMS-536924, 1000 nM: Cc1cc(N2CCOCC2)cc2[nH]c(-c3c(NC[C@@H](O)c4cccc(Cl)c4)cc[nH]c3=O)nc12
GSK0660, 5000 nM: COC(=O)c1sccc1S(=O)(=O)Nc1ccc(Nc2ccccc2)cc1OC
nutlin-3, 500 nM: COc1ccc(C2=N[C@@H](c3ccc(Cl)cc3)[C@@H](c3ccc(Cl)cc3)N2C(=O)N2CCNC(=O)C2)c(OC(C)C)c1
AZD7762, 100 nM: NC(=O)Nc1cc(-c2cccc(F)c2)sc1C(=O)N[C@H]1CCCNC1
tipifarnib, 50 nM: Cn1cncc1[C@@](N)(c1ccc(Cl)cc1)c1ccc2c(c1)c(-c1cccc(Cl)c1)cc(=O)n2C
A-769662, 10000 nM: N#Cc1c(O)c2c(-c3ccc(-c4ccccc4O)cc3)csc2[nH]c1=O
nilutamide, 5000 nM: CC1(C)NC(=O)N(c2ccc([N+](=O)[O-])c(C(F)(F)F)c2)C1=O
L-779450, 1000 nM: Oc1cc(-c2nc(-c3ccccc3)[nH]c2-c2ccncc2)ccc1Cl
gemcitabine, 2 nM: Nc1ccn([C@@H]2O[C@H](CO)[C@@H](O)C2(F)F)c(=O)n1
lestaurtinib, 20 nM: C[C@]12O[C@H](C[C@]1(O)CO)n1c3ccccc3c3c4c(c5c6ccccc6n2c5c31)CNC4=O
crizotinib, 1000 nM: C[C@@H](Oc1cc(-c2cnn(C3CCNCC3)c2)cnc1N)c1c(Cl)ccc(F)c1Cl
ABT-263, 2000 nM: CC1(C)CCC(c2ccc(Cl)cc2)=C(CN2CCN(c3ccc(C(=O)NS(=O)(=O)c4ccc(N[C@H](CCN5CCOCC5)CSc5ccccc5)c(S(=O)(=O)C(F)(F)F)c4)cc3)CC2)C1
GW0742, 10000 nM: Cc1cc(SCc2sc(-c3ccc(C(F)(F)F)c(F)c3)nc2C)ccc1OCC(=O)O
GSK650394, 800 nM: O=C(O)c1ccc(-c2c[nH]c3ncc(-c4ccccc4)cc23)cc1C1CCCC1
dorsomorphin, 2000 nM: c1cc(-c2cnn3cc(-c4ccc(OCCN5CCCCC5)cc4)cnc23)ccn1
PD173074, 500 nM: CCN(CC)CCCCNc1ncc2cc(-c3cc(OC)cc(OC)c3)c(NC(=O)NC(C)(C)C)nc2n1
fingolimod, 10000 nM: CCCCCCCCc1ccc(CCC(N)(CO)CO)cc1
perifosine, 2000 nM: CCCCCCCCCCCCCCCCCCOP(=O)([O-])OC1CC[N+](C)(C)CC1
temozolomide, 10000 nM: Cn1nnc2c(C(N)=O)ncn2c1=O
cediranib, 2000 nM: COc1cc2c(Oc3ccc4[nH]c(C)cc4c3F)ncnc2cc1OCCCN1CCCC1
KU-55933, 5000 nM: O=c1cc(-c2cccc3c2Sc2ccccc2S3)oc(N2CCOCC2)c1
TCS401, 8330 nM: O=C(O)C(=O)Nc1sc2c(c1C(=O)O)CCNC2
CHIR-265, 400 nM: Cn1c(Nc2ccc(C(F)(F)F)cc2)nc2cc(Oc3ccnc(-c4ncc(C(F)(F)F)[nH]4)c3)ccc21
selumetinib, 75 nM: Cn1cnc2c(F)c(Nc3ccc(Br)cc3Cl)c(C(=O)NOCCO)cc21
OSI-906, 2000 nM: C[C@]1(O)C[C@@H](c2nc(-c3ccc4ccc(-c5ccccc5)nc4c3)c3c(N)nccn32)C1

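The test systems are human melanoma cell lines, treated with a pair of drugs for 72 h and then stained and imaged. Each value is the cleaved-PARP-positive fraction of nuclei relative to DMSO-treated wells, in %, so that 100 equals the control and higher values mean more apoptosis. Concentrations were fixed for each drug; these are the higher of two levels. The file gives one value for each pair and line, without errors, so small differences may be noise. Basal and induced levels differ widely between cell lines.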
Only some of the drugs and lines screened are listed, without regard to their results.
A dash means that no value is listed here.

| # | Partner | G-361 | A2058 | IST-MEL1 | SK-MEL-5 | MZ2-MEL | COLO 792 | 501mel | MEL-HO | WM3526 | WM115 | UACC-62 | SK-MEL-30 | SK-MEL-28 | A101D | WM1745 |
|---|---|---|---|---|---|---|---|---|---|---|---|---|---|---|---|---|
| 1 | vatalanib | 316 | 322 | 332 | 526 | 74.7 | 160 | - | 448 | 109 | 120 | 268 | 47.2 | 34.5 | 72.2 | 171 |
| 2 | TCS401 | 312 | 115 | 92.4 | 107 | 102 | 135 | 164 | 158 | 95.1 | 89.8 | 239 | 212 | 188 | 93.9 | - |
| 3 | OSI-906 | 282 | 146 | 148 | 97.5 | 104 | 39.2 | - | 70.3 | 206 | 106 | 136 | 106 | 160 | 70.5 | 123 |
| 4 | lestaurtinib | 82.4 | 162 | 103 | 93.8 | 115 | 244 | - | 128 | 300 | 200 | 14.6 | 155 | 27.2 | 96.3 | 114 |
| 5 | fingolimod | 11900 | 1130 | 1660 | 555 | 10500 | 13100 | - | 6360 | 3350 | 7360 | 327 | 1660 | 4290 | 382 | 2840 |
| 6 | tozasertib | 272 | 164 | 32.6 | 113 | - | 234 | - | 234 | 128 | 220 | 91.4 | 28.0 | 71.9 | 75.9 | 204 |
| 7 | decitabine | 288 | 223 | 113 | 172 | 182 | 295 | - | 183 | 118 | 113 | 215 | 146 | 99.9 | 76.4 | 150 |
| 8 | nilutamide | 290 | 110 | 151 | 196 | 53.0 | 195 | - | 83.2 | 107 | 303 | 189 | 86.8 | 132 | 52.4 | 130 |
| 9 | A-769662 | 204 | 112 | 49.8 | 220 | 164 | 85.7 | 109 | 101 | 145 | 115 | 120 | 68.7 | 51.6 | 67.2 | - |
| 10 | BMS-536924 | 342 | 120 | 83.0 | 108 | 141 | 196 | - | 82.7 | 206 | 112 | 67.7 | 95.7 | 116 | 56.6 | 241 |
| 11 | cediranib | 170 | 49.3 | 98.3 | 83.2 | 210 | 93.0 | - | 63.9 | 83.0 | 20.1 | 134 | 141 | 82.9 | 63.9 | 84.0 |
| 12 | perifosine | 102 | 235 | 69.9 | 63.1 | 233 | 111 | - | 48.2 | 158 | 158 | 97.8 | 84.2 | 244 | 48.4 | 108 |
| 13 | AZD7762 | 478 | 340 | 306 | 118 | 221 | 258 | - | 174 | 867 | 80.7 | 80.5 | 105 | 441 | 284 | 85.8 |
| 14 | nutlin-3 | 229 | 61.1 | 64.7 | 157 | 127 | 85.9 | - | 179 | 50.4 | 101 | 236 | 87.9 | 34.9 | 226 | 117 |
| 15 | GSK650394 | 510 | 144 | 117 | 145 | 290 | 154 | - | 45.1 | 244 | 29.9 | 114 | 90.7 | 120 | 210 | 84.7 |
| 16 | crizotinib | 244 | 307 | 34.1 | 41.0 | 113 | 91.3 | - | 35.0 | 81.1 | 122 | 255 | 88.2 | 336 | 57.6 | 123 |
| 17 | GSK0660 | 221 | 106 | 66.4 | 70.6 | 58.5 | 138 | 94.5 | 119 | 153 | 255 | 152 | 94.7 | 59.1 | 113 | - |
| 18 | docetaxel | 788 | 1990 | 175 | 1360 | 807 | 942 | - | 236 | 2140 | 1110 | 355 | 407 | 701 | 267 | 229 |
| 19 | enzastaurin | 148 | 248 | 78.0 | 138 | 189 | 45.8 | - | 41.7 | 106 | 92.6 | 156 | 77.2 | 79.9 | 55.6 | 218 |
| 20 | temozolomide | 129 | 493 | 79.6 | 28.3 | 33.6 | 187 | - | 124 | 30.3 | 57.2 | 154 | 148 | 381 | 68.0 | 125 |
| 21 | SNS-032 | 217 | 148 | 77.6 | 68.7 | 221 | 157 | - | 52.3 | 146 | 119 | 144 | 118 | 135 | 105 | 75.1 |
| 22 | IMD-0354 | 423 | 186 | 64.3 | 209 | 85.3 | 213 | - | 223 | 138 | 102 | 142 | 298 | 71.6 | 82.6 | 111 |
| 23 | gemcitabine | 502 | 327 | 68.6 | 115 | 57.8 | 166 | - | 240 | 105 | 138 | 110 | 28.4 | 82.2 | 82.1 | 195 |
| 24 | selumetinib | 112 | 114 | 60.9 | 417 | 477 | 140 | - | 70.8 | 326 | 34.2 | 90.8 | 70.7 | 69.5 | 82.8 | 109 |
| 25 | dorsomorphin | 177 | 487 | 46.8 | 74.5 | - | 123 | - | 64.8 | 116 | 83.6 | 164 | 210 | 245 | 276 | - |
| 26 | FH535 | 677 | 167 | 30.1 | 272 | 181 | 152 | 197 | 76.0 | 130 | 66.8 | 79.8 | 92.4 | 508 | 153 | - |
| 27 | PD173074 | 97.2 | 108 | 185 | 95.8 | - | 31.2 | - | 142 | 57.0 | 104 | 44.6 | 58.8 | 84.5 | 62.7 | - |
| 28 | AS-252424 | 294 | 129 | 39.6 | 98.5 | 168 | 75.9 | - | 531 | 64.5 | 35.1 | 125 | 134 | 93.8 | 13.2 | - |
| 29 | indole-3-carbinol | 99.5 | 88.3 | 189 | 77.9 | 100 | 88.9 | - | 84.2 | 195 | 36.8 | 40.6 | 198 | 175 | 171 | 97.9 |
| 30 | GW0742 | 332 | 167 | 102 | 47.1 | 197 | 113 | 39.2 | 112 | 141 | 137 | 57.1 | 135 | 143 | 51.1 | - |
| 31 | LFM-A13 | 258 | 138 | 108 | 138 | 300 | 84.3 | 52.7 | 160 | 183 | 97.9 | 200 | 93.4 | 276 | 162 | - |
| 32 | embelin | 188 | 114 | 54.2 | 180 | 164 | 101 | 289 | 51.3 | 233 | 102 | 319 | 128 | 120 | 129 | - |
| 33 | VX-702 | 150 | 101 | 108 | 170 | - | 128 | - | 86.3 | 106 | 102 | 72.1 | 101 | 60.3 | 28.5 | 219 |
| 34 | L-779450 | 219 | 172 | 53.8 | 196 | 149 | 52.6 | 95.4 | 57.6 | 161 | 312 | 271 | 107 | 199 | 35.3 | - |
| 35 | CHIR-265 | 483 | - | 237 | 1620 | 338 | 1240 | - | 59.3 | 372 | 542 | - | 226 | 215 | 79.5 | 133 |
| 36 | bexarotene | 351 | 127 | 153 | 69.4 | 697 | 75.9 | - | 55.0 | 110 | 37.7 | 128 | 125 | 124 | 58.3 | 143 |
| 37 | ABT-263 | 743 | 191 | 125 | 269 | 321 | 1630 | - | 145 | 296 | 113 | 241 | 251 | 449 | 120 | 4430 |
| 38 | tipifarnib | 141 | 150 | 88.2 | 43.6 | 127 | 125 | - | 251 | 142 | 236 | 98.2 | 58.1 | 151 | 69.2 | 148 |
| 39 | KU-55933 | 248 | 145 | 231 | 416 | 215 | 119 | 179 | 50.7 | 178 | 177 | 88.2 | 64.0 | 44.8 | 64.5 | - |

Some entries from above, unchanged:

| Partner | G-361 | A2058 | IST-MEL1 | SK-MEL-5 | MZ2-MEL | COLO 792 | 501mel | MEL-HO | WM3526 | WM115 | UACC-62 | SK-MEL-30 | SK-MEL-28 | A101D | WM1745 |
|---|---|---|---|---|---|---|---|---|---|---|---|---|---|---|---|
| tozasertib | 272 | 164 | 32.6 | 113 | - | 234 | - | 234 | 128 | 220 | 91.4 | 28.0 | 71.9 | 75.9 | 204 |
| lestaurtinib | 82.4 | 162 | 103 | 93.8 | 115 | 244 | - | 128 | 300 | 200 | 14.6 | 155 | 27.2 | 96.3 | 114 |
| KU-55933 | 248 | 145 | 231 | 416 | 215 | 119 | 179 | 50.7 | 178 | 177 | 88.2 | 64.0 | 44.8 | 64.5 | - |
| decitabine | 288 | 223 | 113 | 172 | 182 | 295 | - | 183 | 118 | 113 | 215 | 146 | 99.9 | 76.4 | 150 |
| cediranib | 170 | 49.3 | 98.3 | 83.2 | 210 | 93.0 | - | 63.9 | 83.0 | 20.1 | 134 | 141 | 82.9 | 63.9 | 84.0 |

Values as published with doi:10.1371/journal.pone.0140310, rounded.